{"sequences": {"note": "Amino acid sequences for entries named in this document (tags omitted).", "UniProt P18615": "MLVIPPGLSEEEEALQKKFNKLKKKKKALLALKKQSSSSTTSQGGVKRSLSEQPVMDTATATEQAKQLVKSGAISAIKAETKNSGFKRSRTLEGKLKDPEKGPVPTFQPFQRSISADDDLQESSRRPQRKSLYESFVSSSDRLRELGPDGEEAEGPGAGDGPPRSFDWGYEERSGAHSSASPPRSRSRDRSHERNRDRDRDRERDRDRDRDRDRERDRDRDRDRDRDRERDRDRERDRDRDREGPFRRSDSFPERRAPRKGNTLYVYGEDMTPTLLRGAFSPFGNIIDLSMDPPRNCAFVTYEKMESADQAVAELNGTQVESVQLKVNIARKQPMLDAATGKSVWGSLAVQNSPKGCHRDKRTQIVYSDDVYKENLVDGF", "UniProt Q12824": "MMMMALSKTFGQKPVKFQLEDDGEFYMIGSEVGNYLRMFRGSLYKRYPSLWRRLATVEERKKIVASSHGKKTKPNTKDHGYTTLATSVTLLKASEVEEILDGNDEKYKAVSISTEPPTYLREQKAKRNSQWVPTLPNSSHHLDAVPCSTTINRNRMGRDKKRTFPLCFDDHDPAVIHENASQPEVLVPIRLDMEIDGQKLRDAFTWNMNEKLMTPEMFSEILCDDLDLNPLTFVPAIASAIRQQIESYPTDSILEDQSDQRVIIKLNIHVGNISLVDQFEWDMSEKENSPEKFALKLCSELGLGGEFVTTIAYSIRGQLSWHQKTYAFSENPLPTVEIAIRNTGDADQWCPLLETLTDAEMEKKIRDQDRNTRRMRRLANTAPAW", "UniProt Q15022": "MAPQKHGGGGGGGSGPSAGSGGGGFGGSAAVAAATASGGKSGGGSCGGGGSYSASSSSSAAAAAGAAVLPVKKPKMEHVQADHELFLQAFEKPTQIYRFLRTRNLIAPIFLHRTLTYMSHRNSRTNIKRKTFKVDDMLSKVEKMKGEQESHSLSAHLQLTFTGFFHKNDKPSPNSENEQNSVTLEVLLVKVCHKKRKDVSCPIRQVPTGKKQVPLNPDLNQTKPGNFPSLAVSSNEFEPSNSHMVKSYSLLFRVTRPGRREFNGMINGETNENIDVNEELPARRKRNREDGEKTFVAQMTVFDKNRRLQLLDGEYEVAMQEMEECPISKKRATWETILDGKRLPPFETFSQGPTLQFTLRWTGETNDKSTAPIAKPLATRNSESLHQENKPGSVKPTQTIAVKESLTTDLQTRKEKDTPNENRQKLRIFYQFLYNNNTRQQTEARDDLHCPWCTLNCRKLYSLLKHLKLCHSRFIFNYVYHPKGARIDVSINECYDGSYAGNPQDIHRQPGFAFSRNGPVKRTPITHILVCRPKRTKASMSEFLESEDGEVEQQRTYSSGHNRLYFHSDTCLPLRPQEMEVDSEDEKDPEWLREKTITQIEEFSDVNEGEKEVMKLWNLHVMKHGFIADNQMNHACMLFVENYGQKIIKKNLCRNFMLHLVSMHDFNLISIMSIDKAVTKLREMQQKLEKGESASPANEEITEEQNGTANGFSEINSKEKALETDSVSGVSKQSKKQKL"}, "source": "paper PMC12045374", "target": "Negative Elongation Factor E (NELFE) (human (endogenous in Hep3B, Huh1, HLE and HCC patient tissue)) (UniProt P18615)", "experiment": "affinity purification with mass spectrometry; immunoprecipitation of NELFE from fractionated nuclear lysates of Hep3B and Huh1; proteins found only in the nucleus, not the cytoplasm, were selected", "note": "Results are given in words; binding and its absence hold for the method and conditions named. In cells and extracts the contact can be indirect. Here binding means that the protein was enriched with, or labelled near, the bait; the list need not be complete."}
{"substance": "SMARCB1 (from UniProt Q12824 1-385)", "values": [{"measurement": "binding", "value": "binds"}]}
{"substance": "SUZ12 (from UniProt Q15022 1-739)", "values": [{"measurement": "binding", "value": "binds"}]}
